In article PMC9257043:
No constants are given. Whether binding was seen depends on the method and setting. Some entries that bind do so weakly or less than the wild type.

The chains behind the UniProt entries cited, without tags or fusion partners. Where a name states a change or a piece, a line headed by the entry shows the natural chain unless it says otherwise. A line that says so, or that is headed by a name, gives the form on record, which may keep a tag or linker. Residues count along the entry.
UniProt P09038, residues 143-288: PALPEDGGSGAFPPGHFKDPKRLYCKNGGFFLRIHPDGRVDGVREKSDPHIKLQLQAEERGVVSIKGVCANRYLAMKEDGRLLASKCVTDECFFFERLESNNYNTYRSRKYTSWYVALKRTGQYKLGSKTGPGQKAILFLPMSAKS
recombinant extracellular ligand binding domain of human FGFR1 (FGFR1-L) (P11362-7, form named): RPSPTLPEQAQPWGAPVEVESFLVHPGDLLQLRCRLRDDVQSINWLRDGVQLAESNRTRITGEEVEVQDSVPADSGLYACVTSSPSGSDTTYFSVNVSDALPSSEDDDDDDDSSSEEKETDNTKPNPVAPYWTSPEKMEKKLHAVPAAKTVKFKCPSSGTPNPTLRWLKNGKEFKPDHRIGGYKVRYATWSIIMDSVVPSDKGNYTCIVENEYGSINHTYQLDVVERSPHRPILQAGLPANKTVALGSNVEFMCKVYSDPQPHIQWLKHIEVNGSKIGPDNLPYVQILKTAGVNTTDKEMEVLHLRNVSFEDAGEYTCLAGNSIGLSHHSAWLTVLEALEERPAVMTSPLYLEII

Target: human basic FGF (bFGF) (human) (UniProt P09038)
Experiment: BLI; Octet RED 96; biotinylated human bFGF (8 ng/μl) immobilised on Biosensors, rSmFGFRA-L and human FGFR1-L as analytes at 30 ng/μl and 23 ng/μl; kinetic buffer; 30°C, 1000 rpm; both purified

binding: binds
Substance: recombinant extracellular ligand binding domain of human FGFR1 (FGFR1-L) (from UniProt P11362-7 22-376) (domain or fragment)
